# Patent US8946173B2, “Cancer cell death inducing agent having effects of potentiating anticancer drug against anticancer-drug-resistant cancer” (Momotaro-Gene Inc., priority 2007, dated 2015)
# At least one compound was matched to its structure with a doubt left.
# Tests used:
# [1] = tested on: P-glycoprotein; test: Western blot of P-glycoprotein expression in MCF7/ADR cells; type: cell-based, human; conditions: 1 μM SP600125 combined with Ad-REIC 100 MOI
# [2] = tested on: cleaved caspase-3; test: Western blot of cleaved caspase-3; type: cell-based, human; conditions: MCF7/Wt and MCF7/ADR cells; 1 μM SP600125 combined with Ad-REIC
structure (smiles),measurement,setting,value
Oc1c2ccccc2c2c3c(cccc13)N=N2 [SP600125],P-glycoprotein level,[1],reversed
same,level of cleaved caspase-3,[2],reversed
